Laboratory results as given in patent publication US12018049B2, “Compositions and related methods for controlling vector-borne diseases” (priority 2017, dated 2024).
For at least one compound, name, drawing or mass did not settle the structure.

Key:
[1] = test system: Acyrthosiphon pisum aphids; test: Aphid survival monitored daily; type: in vivo; details: through plants
[2] = test system: Acyrthosiphon pisum aphids; test: Aphid fecundity (offspring counts); type: in vivo; details: through plants, 0.25% gossypol
Method: (§1) In addition, the developmental stage (1st, 2nd, 3rd, 4th, 5th instar) was determined daily throughout the experiment. Once an aphid reached the 4th instar stage, they were given their own artificial feeding system in a deep petri dish so that fecundity could be monitored once they reached adulthood.
For adult aphids, new nymphs were counted daily and then discarded. At the end of the experiments, fecundity was determined as the mean number of offspring produced daily once the aphid reached adulthood. Pictures of aphids were taken throughout the experiment to evaluate size differences between treatment groups.
as §1, with “5th, and 5R (5th that has reproduced)” for “5th”
For adult aphids, new nymphs were counted daily and then discarded. At the end of the experiments, fecundity was measured in two ways: 1) the mean day at which the first offspring for the treatment group was determined and 2) the mean number of offspring produced daily once the aphid reached adulthood. […]
In addition, the developmental stage (1st, 2nd, 3rd, 4th, 5th instar) was determined daily throughout the experiment. […]

Cc1cc2c(C(C)C)c(O)c(O)c(C=O)c2c(O)c1-c1c(C)cc2c(C(C)C)c(O)c(O)c(C=O)c2c1O [gossypol, gossypol acetic acid]
survival of aphids ([1]; 0.25% gossypol): survived a bit longer than those treated with 0.5% but were also drastically affected | survival rate of aphids ([1]; 0.25 and 0.5% gossypol, only 0.5% significantly different from control): lower survival rates than aphids treated with artificial diet alone | reaching adulthood and producing offspring [2]: reduction to reach adulthood and produce offspring
